Test results reported in article PMC5974162, “Characterization of Ferredoxin-Dependent Biliverdin Reductase PCYA1 Reveals the Dual Function in Retrograde Bilin Biosynthesis and Interaction With Light-Dependent Protochlorophyllide Oxidoreductase LPOR in Chlamydomonas reinhardtii” (Frontiers in Plant Science, 2018).

Legend:
[1] = target: FDBR (amino acids 175-451) in pGBKT7 (Chlamydomonas reinhardtii); assay: two-hybrid; Matchmaker Gold system; baits in pGBKT7 (Y2H Gold) mated with preys in pGADT7 (Y187); spotted on SD/-Trp-Leu, SD/-Trp-Leu-Ade-His and SD/-Trp-Leu with 80 μg/ml X-gal, 28°C, 2-3 days
[2] = target: cLUC-PCYA1 (full-length) (Chlamydomonas reinhardtii); assay: split reporter; split-luciferase complementation; cLUC and nLUC fusions co-expressed in Nicotiana benthamiana leaves by Agrobacterium infiltration; luminescence imaged 48 h after infiltration with 1 mM luciferin

| Binder | binding [1] | binding [2] |
| --- | --- | --- |
| CHLB (full length) in pGADT7 (protein, UniProt P36437 1-687) MKLAYWMYAGPAHIGVLRVSSSFKNVHAIMHAPLGDDYFNVMRSMLERERDFTPVTASIVDRHVLARGSQEKVVENITRKNKEETPDLILLTPTCTSSILQEDLHNFVESALAKPVQIDEHADHKVTQQSALSSVSPLLPLEENTLIVSELDKKLSPSSKLHINMPNICIPEGEGEGEQTKNSIFVKSATLTNLSEEELLNQEHHTKTRNHSDVILADVNHYRVNELQAADRTLEQIVRYYISQAQKQNCLNITKTAKPSVNIIGIFTLGFHNQHDCRELKRLFNDLGIQINEIIPEGGNVHNLKKLPQAWFNFVPYREIGLMTAMYLKSEFNMPYVAITPMGLIDTAACIRSICKIITTQLLNQTATVQEPSKFIYPKATSLEQTNILETSQKETILKDNPDSGNTLSTTVEEIETLFNKYIDQQTRFVSQAAWFSRSIDCQNLTGKKAVVFGDATHSAAMTKLLAREMGIKVSCAGTYCKHDADWFREQVSGFCDQVLITDDHTQVGDMIAQLEPAAIFGTQMERHVGKRLDIPCGVISAPVHIQNFPLGYRPFLGYEGTNQIADLVYNSFNLGMEDHLLQIFGGHDSENNSSIATHLNTNNAINLAPGYLPEGEGSSRTSNVVSTISSEKKAIVWSPEGLAELNKVPGFVRGKVKRNTEKYALQKNCSMITVEVMYAAKEALSA | no binding |  |
| LPOR (amino acids 35-397) in pGADT7 (domain or fragment, UniProt Q39617 35-397) RVMPAPALAARSSVARTPLVVCAATATAPSPSLADKFKPNAIARVPATQQKQTAIITGASSGLGLNAAKALAATGEWHVVMACRDFLKAEQAAKKVGMPAGSYSILHLDLSSLESVRQFVQNFKASGRRLDALVCNAAVYLPTAKEPRFTADGFELSVGTNHLGHFLLTNLLLDDLKNAPNKQPRCIIVGSITGNTNTLAGNVPPKANLGDLSGLAAGVPAANPMMDGQEFNGAKAYKDSKVACMMTVRQMHQRFHDATGITFASLYPGCIAETGLFREHVPLFKTLFPPFQKYITKGYVSEEEAGRRLAAVISDPKLNKSGAYWSWSSTTGSFDNQVSEEVADDSKASKLWDISAKLVGLSA | binds |  |
| CHLL (full length) in pGADT7 (protein, UniProt Q00469 1-293) MKLAVYGKGGIGKSTTSCNISIALRKRGKKVLQIGCDPKHDSTFTLTGFLIPTIIDTLSSKDYHYEDIWPEDVIYGGYGGVDCVEAGGPPAGAGCGGYVVGETVKLLKELNAFFEYDVILFDVLGDVVCGGFAAPLNYADYCIIVTDNGFDALFAANRIAASVREKARTHPLRLAGLIGNRTSKRDLIDKYVEACPMPVLEVLPLIEEIRISRVKGKTLFEMSNKNNMTSAHMDGSKGDNSTVGVSETPSEDYICNFYLNIADQLLTEPEGVIPRELADKELFTLLSDFYLKI | no binding |  |

More lines, now with the values ahead:

| binding [1] | binding [2] | Binder |
| --- | --- | --- |
|  | binds | nLUC-LPOR (domain or fragment, UniProt Q39617 35-397) RVMPAPALAARSSVARTPLVVCAATATAPSPSLADKFKPNAIARVPATQQKQTAIITGASSGLGLNAAKALAATGEWHVVMACRDFLKAEQAAKKVGMPAGSYSILHLDLSSLESVRQFVQNFKASGRRLDALVCNAAVYLPTAKEPRFTADGFELSVGTNHLGHFLLTNLLLDDLKNAPNKQPRCIIVGSITGNTNTLAGNVPPKANLGDLSGLAAGVPAANPMMDGQEFNGAKAYKDSKVACMMTVRQMHQRFHDATGITFASLYPGCIAETGLFREHVPLFKTLFPPFQKYITKGYVSEEEAGRRLAAVISDPKLNKSGAYWSWSSTTGSFDNQVSEEVADDSKASKLWDISAKLVGLSA |
| no binding |  | CHLN (full length) in pGADT7 (protein, UniProt P29683 1-545) MKPLKLKRLIMENNKSHATNLSLGGPFQGNCMPINQYFSKNQPNRGSSSSEKRSSLLPLWESKNAADGFSIVSHNVLLDGATTILNLNSFFECETGNYHTFCPISCVAWLYQKIEDSFFLVIGTKTCGYFLQNALGVMIFAEPRYAMAELEESDISAQLNDYKELKRLCLQIKQDRNPSVIVWIGTCTTEIIKMDLEGMAPRLETEIGIPIVVARANGLDYAFTQGEDTVLSAMALASLKKDVPFLVGNTGLTNNQLLLEKSTSSVNGTDGKELLKKSLVLFGSVPSTVTTQLTLELKKEGINVSGWLPSANYKDLPTFNKDTLVCGINPFLSRTATTLMRRSKCTLICAPFPIGPDGTRVWIEKICGAFGINPSLNPITGNTNLYDREQKIFNGLEDYLKLLRGKSVFFMGDNLLEISLARFLTRCGMIVYEIGIPYLDKRFQAAELALLEQTCKEMNVPMPRIVEKPDNYYQIRRIRELKPDLTITGMAHANPLEARGITTKWSVEFTFAQIHGFTNTREILELVTQPLRRNLMSNQSVNAIS |

No constants are given. Whether binding was seen depends on the method and setting. Binding calls can cover weak binding; strength is not graded here. For some assays here: In cells and extracts the contact can be indirect. For some assays here: Sequences can lack the tags named with a protein.
